Results are given in words; binding and its absence hold for the method and conditions named.

This passage reports binding results from PMC5073310.

This assay has as its target T1, FERM domain of the protein tyrosine phosphatase PTPN13, yeast two-hybrid control (UniProt Q12923).
T1 sequence: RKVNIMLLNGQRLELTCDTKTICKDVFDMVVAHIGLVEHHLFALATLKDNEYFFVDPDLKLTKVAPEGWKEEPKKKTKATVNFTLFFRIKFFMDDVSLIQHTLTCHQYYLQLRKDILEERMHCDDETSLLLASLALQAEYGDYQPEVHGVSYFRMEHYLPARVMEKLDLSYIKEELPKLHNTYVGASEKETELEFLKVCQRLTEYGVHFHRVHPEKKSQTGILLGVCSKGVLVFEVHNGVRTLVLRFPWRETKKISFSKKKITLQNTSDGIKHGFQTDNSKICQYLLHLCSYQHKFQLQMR
In words: two-hybrid; yeast two-hybrid; SDCCAG3 aa 1-100 as bait (screen), then IFT88 (full-length) co-transformed with SDCCAG3 aa 1-100 or negative control plasmids; growth on media deficient for Trp, Leu and His.

B1: IFT88 (full-length), yeast two-hybrid construct (protein, UniProt Q13099 1-824)
chain: MMQNVHLAPETDEDDLYSGYNDYNPIYDIEELENDAAFQQAVRTSHGRRPPITAKISSTAVTRPIATGYGSKTSLASSIGRPMTGAIQDGVTRPMTAVRAAGFTKAALRGSAFDPLSQSRGPASPLEAKKKDSPEEKIKQLEKEVNELVEESCIANSCGDLKLALEKAKDAGRKERVLVRQREQVTTPENINLDLTYSVLFNLASQYSVNEMYAEALNTYQVIVKNKMFSNAGILKMNMGNIYLKQRNYSKAIKFYRMALDQVPSVNKQMRIKIMQNIGVTFIQAGQYSDAINSYEHIMSMAPNLKAGYNLTICYFAIGDREKMKKAFQKLITVPLEIDEDKYISPSDDPHTNLVTEAIKNDHLRQMERERKAMAEKYIMTSAKLIAPVIETSFAAGYDWCVEVVKASQYVELANDLEINKAVTYLRQKDYNQAVEILKVLEKKDSRVKSAAATNLSALYYMGKDFAQASSYADIAVNSDRYNPAALTNKGNTVFANGDYEKAAEFYKEALRNDSSCTEALYNIGLTYEKLNRLDEALDCFLKLHAILRNSAEVLYQIANIYELMENPSQAIEWLMQVVSVIPTDPQVLSKLGELYDREGDKSQAFQYYYESYRYFPCNIEVIEWLGAYYIDTQFWEKAIQYFERASLIQPTQVKWQLMVASCFRRSGNYQKALDTYKDTHRKFPENVECLRFLVRLCTDLGLKDAQEYARKLKRLEKMKEIREQRIKSGRDGSGGSRGKREGSASGDSGQNYSASSKGERLSARLRALPGTNEPYESSSNKEIDASYVDPLGPQIERPKTAAKKRIDEDDFADEELGDDLLPE
Take B1: the binding entry is reported as “no binding”.
